Laboratory results reported in patent publication US20100291160A1, “PHARMACEUTICAL SYSTEM FOR TRANS-MEMBRANE DELIVERY” (priority 2009, published 2010).
Structures can show the parent of a compound that is named as a salt.

Assay: in vitro diffusion of formulation across membrane mounted on vial
Settings: pH found to produce rapid diffusion across the membrane; pH adjusted with sodium bicarbonate or citric acid

CN1[C@@H]2CC[C@H]1C[C@@H](OC(=O)C(CO)c1ccccc1)C2 (stereo partly shown) [Atropine sulfate]
Optimal pH Conditions with Experimental Formulation: pH 6.5 to 5.0
